One test has as its target Flag-HA-Aurora B (human) (UniProt Q96GD4). Nature of the test: affinity purification with mass spectrometry; Flag-Aurora B-specific complex purified from HEK293T cells ectopically expressing Flag-Aurora B with or without His-K63-Ub; LC-MS/MS.
In test [1] the target is T1, Flag-HA-Aurora B (human), Q96GD4.
T1 chain: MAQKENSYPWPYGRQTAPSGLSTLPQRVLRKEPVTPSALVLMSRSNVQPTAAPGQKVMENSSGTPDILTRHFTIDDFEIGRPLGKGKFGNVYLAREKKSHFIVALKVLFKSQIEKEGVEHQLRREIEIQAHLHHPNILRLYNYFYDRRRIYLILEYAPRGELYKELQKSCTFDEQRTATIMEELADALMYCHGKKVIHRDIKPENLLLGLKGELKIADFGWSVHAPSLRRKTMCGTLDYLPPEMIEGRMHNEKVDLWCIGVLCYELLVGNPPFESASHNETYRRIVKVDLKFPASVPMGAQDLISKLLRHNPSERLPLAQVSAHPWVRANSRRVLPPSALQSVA
Described as above. The following applies: remark: other sources report otherwise.

The chains behind the UniProt entries cited, without tags or fusion partners.
UniProt Q9NQS7: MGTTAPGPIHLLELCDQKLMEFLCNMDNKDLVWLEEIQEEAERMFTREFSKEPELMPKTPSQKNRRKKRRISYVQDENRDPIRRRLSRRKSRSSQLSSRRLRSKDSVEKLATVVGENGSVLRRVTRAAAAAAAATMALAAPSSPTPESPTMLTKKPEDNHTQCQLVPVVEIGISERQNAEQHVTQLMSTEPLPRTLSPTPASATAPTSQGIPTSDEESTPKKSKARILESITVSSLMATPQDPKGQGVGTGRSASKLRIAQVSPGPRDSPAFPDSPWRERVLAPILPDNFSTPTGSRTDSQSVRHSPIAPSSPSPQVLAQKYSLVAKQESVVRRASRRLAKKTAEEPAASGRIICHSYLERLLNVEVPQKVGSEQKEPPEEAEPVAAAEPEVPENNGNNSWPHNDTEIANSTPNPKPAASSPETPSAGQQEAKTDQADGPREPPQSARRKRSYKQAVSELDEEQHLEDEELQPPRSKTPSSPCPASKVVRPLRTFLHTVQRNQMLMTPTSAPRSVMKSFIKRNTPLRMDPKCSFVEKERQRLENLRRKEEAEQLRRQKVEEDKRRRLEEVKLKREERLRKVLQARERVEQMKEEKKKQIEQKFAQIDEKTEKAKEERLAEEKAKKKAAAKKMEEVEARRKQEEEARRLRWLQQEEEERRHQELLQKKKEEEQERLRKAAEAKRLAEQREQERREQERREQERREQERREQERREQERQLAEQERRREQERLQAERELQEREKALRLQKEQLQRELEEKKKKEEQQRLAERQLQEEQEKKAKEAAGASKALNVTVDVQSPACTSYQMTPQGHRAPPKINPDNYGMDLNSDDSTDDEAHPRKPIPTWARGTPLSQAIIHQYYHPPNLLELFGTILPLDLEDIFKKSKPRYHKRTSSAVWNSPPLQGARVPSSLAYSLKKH
UniProt P46736: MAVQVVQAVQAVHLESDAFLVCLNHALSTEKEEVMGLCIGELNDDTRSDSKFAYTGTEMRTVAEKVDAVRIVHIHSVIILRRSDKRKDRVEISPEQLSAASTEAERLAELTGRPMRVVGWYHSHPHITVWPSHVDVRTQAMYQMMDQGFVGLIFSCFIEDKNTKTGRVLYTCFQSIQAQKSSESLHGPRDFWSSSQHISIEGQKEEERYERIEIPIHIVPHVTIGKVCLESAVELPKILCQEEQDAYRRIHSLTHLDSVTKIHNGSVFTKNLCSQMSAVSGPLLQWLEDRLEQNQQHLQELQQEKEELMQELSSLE

No constants are given. Whether binding was seen depends on the method and setting. Binding seen in cells or lysates may run through a third protein. Here binding means that the protein was enriched with, or labelled near, the bait; the list need not be complete. For part of these data: Tags and fused reporters may be left off the sequences shown.

For INCENP (from UniProt Q9NQS7 1-918), the binding entry with Flag-HA-Aurora B (human) is “binds”. For “BRCC36 (endogenous, HEK293T) (from UniProt P46736 1-316)”, the binding result with Flag-HA-Aurora B (human) was “binds”.

B1: Borealin, Q53HL2 1-280 (protein)
chain: MAPRKGSSRVAKTNSLRRRKLASFLKDFDREVEIRIKQIESDRQNLLKEVDNLYNIEILRLPKALREMNWLDYFALGGNKQALEEAATADLDITEINKLTAEAIQTPLKSAKTRKVIQVDEMIVEEEEEEENERKNLQTARVKRCPPSKKRTQSIQGKGKGKRSSRANTVTPAVGRLEVSMVKPTPGLTPRFDSRVFKTPGLRTPAAGERIYNISGNGSPLADSKEIFLTVPVGGGESLRLLASDLQRHSIAQLDPEALGNIKKLSNRLAQICSSIRTHK
On to B1, for which, in test [1], the binding result is on record as “binds”.

These data come from PMC9726926.
